This is one part of the list. Shown are side measurements of this screen, not its main read-out; they come without a call. Compounds called inactive in the main read-out are mostly missing here. Potencies come from curve fits of mixed quality, noted in brackets.

The experiment is described as follows: IkB Signaling. The conditions noted are these: ABC-DLBCL IkBa-CBG/CBR dual luciferase ratio (green luciferase fused to IkBa over red control in OCI-Ly3 lymphoma cells), 4 h; measured here: control luc red channel unless noted. In a few lines: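 Luminescence ratio of IκBα-fused green versus native red beetle luciferase in OCI-Ly3 cells, 4 h post-doxycycline with compound; red signal alone, scaled from basal (0%) to zero light (-100%), flagged nonspecific or cytotoxic effects.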
Regarding `CC(C)(C)C1CCc2c(sc(NC(=O)c3cc(-c4ccc(F)cc4)on3)c2C#N)C1` (stereo not drawn), the AC50 was 25.1 µM [falling, single point].
With `CSc1cccc(Nc2cc(C(=O)NC3CCCCC3)c3ccccc3n2)c1`, the AC50 was 0.316 µM [falling, full curve].
Take `CCCCCCSc1nc(N)c2c3c(sc2n1)CCCC3C` (stereo not drawn): the AC50 is 3.16 µM [rising, full curve].
Turning to `CCOC(=O)N1CCN(Cc2nc3cc(NC(=O)CC(C)C)ccc3n2C(C)C)CC1`, the AC50 was 5.01 µM [rising, full curve, poor fit].
In the case of `COc1cccc(-c2noc(-c3cc4ccccc4oc3=O)n2)c1OC` it was 2.51 µM [falling, partial curve]; in that of `Nc1nonc1-c1nc2ccccc2n1CC(=O)Nc1cccc(C(F)(F)F)c1`, 39.8 µM [falling, single point].
As to `CC1=C(C(=O)Nc2ccccc2)C(c2ccc(F)cc2)n2nc(SCc3cc(C)ccc3C)nc2N1` (stereo not drawn), the AC50 is 2.51 µM [rising, full curve, poor fit].
On to `COCCn1c(C)cc(O)c(C(c2ccccc2)N2CCCCC2)c1=O` (stereo not drawn), for which the concentration at half-maximal activity (AC50) is 0.1 µM [falling, single point].
For `CCc1ccccc1NC(=O)N1CCN(Cc2nc3ccc(C)cc3o2)CC1`, the AC50 was 10 µM [falling, partial curve].
As to `Cc1ccc(-n2ncc3c(Nc4ccc(Oc5ccccc5)cc4)ncnc32)cc1`, the AC50 is 7.94 µM [falling, full curve].
As for `Cc1c(C(=O)Nc2cccc(C(F)(F)F)c2)sc2nc3n(c(=O)c12)CCC3`, the AC50 was 31.6 µM [falling, single point].
In the case of `CC(C)Cc1nn2c(=O)cc(COC(=O)c3cccc(NC(=O)c4ccccc4)c3)nc2s1`, the AC50 is 3.98 µM [falling, partial curve].
As to `Cc1cccc(N2CCN(C(=O)c3cc4ccc5cccnc5c4[nH]3)CC2)c1C`, the AC50 was 20 µM [falling, partial curve].
Regarding `C=CCOC(=O)C1=C(C)NC(SC)=C(C#N)C1c1ccc(OCC)cc1` (stereo not drawn), the AC50 is 25.1 µM [falling, partial curve].
Then `CCC(C)[C@@H](C(=O)Nc1ccc2c(c1)OCO2)N1Cc2ccccc2C1=O` (stereo partly drawn), with 15.8 µM [falling, partial curve].
For `CC(C)Oc1ccc(C(=O)NCCc2csc(-c3cccc(F)c3)n2)cc1`, the AC50 was 12.6 µM [falling, partial curve].
`Cc1ccccc1NC(=O)c1c(C)oc2ccc(O)c(CN(C)Cc3ccccc3)c12`: the AC50 is 12.6 µM [falling, partial curve].
In the case of `CCCCCn1c(CCCNC(=O)c2ccccc2)nc2ccccc21`, the AC50 was 12.6 µM [falling, partial curve].
Consider `O=C(Nc1ncc(Cc2ccc(F)cc2)s1)c1ccc2c(c1)CC(c1ccccc1)OC2=O` (stereo not drawn), for which the AC50 was 12.6 µM [rising, partial curve].
Consider `COc1cccc(NC(=O)Cn2c(=O)n(-c3ccc(C)cc3)c(=O)c3ccccc32)c1`, for which the AC50 is 25.1 µM [falling, single point].
Take `CCN(CCCNC(=O)CCc1nc(-c2ccc(C)cc2)no1)c1cccc(C)c1`: the AC50 was 12.6 µM [falling, partial curve].
In the case of `Cc1ccccc1NC(=O)CSc1nccn1C`, the AC50 was 0.631 µM [rising, full curve, poor fit].
`Cc1ccc(-c2noc(CN(C(=O)c3cccs3)C(C)C)n2)cc1`: the AC50 is 25.1 µM [falling, single point].
On to `CCCSc1nnc(NC(=O)c2cc(=O)c3ccccc3o2)s1`, for which the AC50 is 39.8 µM [falling, single point].
Then `CCOC(=O)N1CCc2c(sc3c2c(=O)n(CCc2ccccc2)c(=O)n3CC(=O)Nc2ccccc2C)C1`, with 20 µM [falling, single point]; and `CCCN1CCN(CCCNC(=O)c2cc3c(s2)-c2c(C)cccc2OC3)CC1`, with 0.2 µM [falling, full curve, poor fit]; and `Cc1ccc(NC(=O)C2CCN(C(=O)c3sc4nc[nH]c(=O)c4c3C)CC2)cc1F`, with 3.98 µM [rising, full curve].
Then `Nc1c(C(=O)NC2CCCC2)c2nc3ccccc3nc2n1N`, with 5.01 µM [falling, partial curve].
Then `COCCn1c(C)cc(O)c(C(c2cccc(F)c2)N2CCN(c3ccccc3)CC2)c1=O` (stereo not drawn), with 0.398 µM [falling, full curve]; and `COc1ccc(N(CC(=O)N2CCN(c3cccc(Cl)c3)CC2)S(=O)(=O)c2c(C)noc2C)cc1`, with 3.16 µM [falling, single point].
For the compound `CCOc1ccc(C(=O)N2CC(=O)Nc3ccc(F)cc3C2c2ccc(F)cc2)cc1` (stereo not drawn), the AC50 is 31.6 µM [falling, single point].
Then `CC(C)Cn1cc(C(=O)N2CCN(c3ccccn3)CC2)c2c3ccccc3n(C)c2c1=O`, with 12.6 µM [falling, partial curve]; and `N#Cc1c(N2C(=O)C3C4C=CC(C4)C3C2=O)sc2c1CCC2` (stereo not drawn), with 31.6 µM [falling, single point]; and `Cc1cc(C)c(NC(=O)C(C)n2nc(C)c3sc4ccccc4c3c2=O)c(C)c1` (stereo not drawn), with 3.98 µM [rising, partial curve, poor fit].
`COc1cccc(N2CC(NC(=O)c3cccs3)CC2=O)c1` (stereo not drawn): the AC50 was 7.94 µM [rising, partial curve].
Regarding `O=S(=O)(NCC(c1ccco1)S(=O)(=O)c1cccs1)c1ccccc1` (stereo not drawn), the AC50 is 6.31 µM [falling, full curve].
On to `Cc1ccc(OC(C)C(=O)N2CCN(CCc3ccccn3)CC2)cc1C` (stereo not drawn), for which the AC50 was 10 µM [falling, partial curve].
As for `CCCc1nnc(NC(=O)CSc2nnc3c4ccccc4n(CC)c3n2)s1`, the AC50 was 39.8 µM [falling, single point].
Regarding `Cc1cccc(C(=O)Nc2ccccc2C(=O)OCc2c(C)noc2C)c1`, the AC50 is 25.1 µM [falling, partial curve].
For `Cc1ccc2nc(CN3CCN(C(=O)Nc4ccc(C)c(F)c4)CC3)oc2c1`, the AC50 is 39.8 µM [falling, single point].
As to `COc1ccc(CCNC(=O)c2ccc(Cn3c(=O)c4ccccc4n(Cc4ccc(C)cc4)c3=O)cc2)cc1OC`, the AC50 was 0.01 µM [rising, full curve, poor fit].
For `COCCCn1c(SCC(=O)Nc2ccccc2OC)nc2c(sc3ccccc32)c1=O`, the AC50 was 39.8 µM [falling, single point].
With `Nc1nc(CN2CCN(c3cccc(Cl)c3)CC2)nc(N2CCCc3ccccc32)n1`, the AC50 is 10 µM [falling, partial curve].
As to `CCOC(=O)C1CCCN(C(=O)Cn2ncn3c(cc4sc(CC)cc43)c2=O)C1` (stereo not drawn), the concentration at half-maximal activity (AC50) was 25.1 µM [falling, single point].
For the compound `COc1cc(OC)c(NC(=O)Cc2ccc(-n3c(C)nc4cccnc43)cc2)cc1Cl`, the AC50 was 25.1 µM [falling, single point].
Then `O=C(Nc1ccc(F)cc1)[C@@H](c1ccccc1)N1Cc2ccccc2C1=O`, with 31.6 µM [falling, single point]; and `COc1ccc(NC(=O)Cn2c(=O)n(-c3ccc(OC)cc3)c(=O)c3ccc(C(=O)NCc4ccc(C)cc4)cc32)cc1`, with 20 µM [rising, partial curve, poor fit].
In the case of `CC(C)c1ccc(NC(=O)CC2Oc3ccccc3NC2=O)cc1` (stereo not drawn), the AC50 is 39.8 µM [falling, single point].
For the compound `Cc1cc(OCC(=O)N(Cc2ccc(N(C)C)cc2)C2CCS(=O)(=O)C2)cc(C)c1Cl` (stereo not drawn), the AC50 is 39.8 µM [falling, single point].
Regarding `Cc1ccc(NC(=O)C(=O)NCC(c2ccc3c(c2)OCO3)N2CCN(c3ccccc3)CC2)cc1` (stereo not drawn), the AC50 was 7.94 µM [falling, partial curve, poor fit].
With `COc1ccc(CC(=O)NCC(c2cccs2)S(=O)(=O)c2ccc(Cl)cc2)cc1` (stereo not drawn), the AC50 is 12.6 µM [falling, partial curve].
As for `Cc1cc(F)ccc1NC(=O)c1ccc2nc(Cc3ccccc3)oc2c1`, the AC50 was 2 µM [falling, partial curve].
Consider `COc1cc(C(=O)Nc2nnc(-c3sccc3C)s2)cc(OC)c1OC`, for which the concentration at half-maximal activity (AC50) is 10 µM [falling, partial curve].
Then `Cn1nnnc1SCC(=O)N1CCN(Cc2ccccc2)CC1`, with 3.16 µM [falling, full curve]; and `Cc1ccc(C)c(N2CCN(C(=O)c3cc(S(=O)(=O)N4CCC(C)CC4)cn3C)CC2)c1`, with 25.1 µM [falling, single point]; and `Brc1ccc(-c2nnc3ccc(N4CCN(c5ccccc5)CC4)nn23)cc1`, with 0.794 µM [rising, full curve, poor fit].
In the case of `CCOc1cc2[nH]c(=O)n(CCCCC(=O)N3CCN(c4ccccc4)CC3)c(=O)c2cc1OCC` it was 31.6 µM [rising, partial curve, poor fit]; in that of `COc1cccc(/C=N/n2c(SC)nnc2-c2ccccc2)c1OC`, 12.6 µM [falling, partial curve].
For the compound `CCCc1cc(C(=O)NC2CCCCC2)no1`, the AC50 is 2.51 µM [falling, full curve].
Then `Cc1cccc(N2CCN(C(=O)C3CCN(S(=O)(=O)c4c(C)noc4C)CC3)CC2)c1C`, with 25.1 µM [falling, single point]; and `COc1ccc2oc(=O)c(-c3cn4c(n3)sc3cc(F)ccc34)cc2c1`, with 12.6 µM [falling, partial curve]; and `COC(=O)c1ccc([C@H]2Nc3ccc(S(=O)(=O)Nc4cccc(C)c4)cc3[C@H]3C=CC[C@H]32)cc1`, with 20 µM [falling, partial curve].
Consider `COCCNC(=O)CCCn1c(SCc2ccccc2Cl)nc2c(sc3ccccc32)c1=O`, for which the AC50 was 20 µM [falling, single point].

Broadly, the AC50 is the midpoint of the concentration-response curve, whichever way the signal moves.
